Results are given in words; binding and its absence hold for the method and conditions named. Binding seen in cells or lysates may run through a third protein. A yes stands for co-enrichment or nearness to the bait. Other partners may have been found. For part of these data: Where a sequence is shown, tags or fusion partners need not be part of it.

Amino acid sequences for entries named in this document (tags omitted).
UniProt P42945: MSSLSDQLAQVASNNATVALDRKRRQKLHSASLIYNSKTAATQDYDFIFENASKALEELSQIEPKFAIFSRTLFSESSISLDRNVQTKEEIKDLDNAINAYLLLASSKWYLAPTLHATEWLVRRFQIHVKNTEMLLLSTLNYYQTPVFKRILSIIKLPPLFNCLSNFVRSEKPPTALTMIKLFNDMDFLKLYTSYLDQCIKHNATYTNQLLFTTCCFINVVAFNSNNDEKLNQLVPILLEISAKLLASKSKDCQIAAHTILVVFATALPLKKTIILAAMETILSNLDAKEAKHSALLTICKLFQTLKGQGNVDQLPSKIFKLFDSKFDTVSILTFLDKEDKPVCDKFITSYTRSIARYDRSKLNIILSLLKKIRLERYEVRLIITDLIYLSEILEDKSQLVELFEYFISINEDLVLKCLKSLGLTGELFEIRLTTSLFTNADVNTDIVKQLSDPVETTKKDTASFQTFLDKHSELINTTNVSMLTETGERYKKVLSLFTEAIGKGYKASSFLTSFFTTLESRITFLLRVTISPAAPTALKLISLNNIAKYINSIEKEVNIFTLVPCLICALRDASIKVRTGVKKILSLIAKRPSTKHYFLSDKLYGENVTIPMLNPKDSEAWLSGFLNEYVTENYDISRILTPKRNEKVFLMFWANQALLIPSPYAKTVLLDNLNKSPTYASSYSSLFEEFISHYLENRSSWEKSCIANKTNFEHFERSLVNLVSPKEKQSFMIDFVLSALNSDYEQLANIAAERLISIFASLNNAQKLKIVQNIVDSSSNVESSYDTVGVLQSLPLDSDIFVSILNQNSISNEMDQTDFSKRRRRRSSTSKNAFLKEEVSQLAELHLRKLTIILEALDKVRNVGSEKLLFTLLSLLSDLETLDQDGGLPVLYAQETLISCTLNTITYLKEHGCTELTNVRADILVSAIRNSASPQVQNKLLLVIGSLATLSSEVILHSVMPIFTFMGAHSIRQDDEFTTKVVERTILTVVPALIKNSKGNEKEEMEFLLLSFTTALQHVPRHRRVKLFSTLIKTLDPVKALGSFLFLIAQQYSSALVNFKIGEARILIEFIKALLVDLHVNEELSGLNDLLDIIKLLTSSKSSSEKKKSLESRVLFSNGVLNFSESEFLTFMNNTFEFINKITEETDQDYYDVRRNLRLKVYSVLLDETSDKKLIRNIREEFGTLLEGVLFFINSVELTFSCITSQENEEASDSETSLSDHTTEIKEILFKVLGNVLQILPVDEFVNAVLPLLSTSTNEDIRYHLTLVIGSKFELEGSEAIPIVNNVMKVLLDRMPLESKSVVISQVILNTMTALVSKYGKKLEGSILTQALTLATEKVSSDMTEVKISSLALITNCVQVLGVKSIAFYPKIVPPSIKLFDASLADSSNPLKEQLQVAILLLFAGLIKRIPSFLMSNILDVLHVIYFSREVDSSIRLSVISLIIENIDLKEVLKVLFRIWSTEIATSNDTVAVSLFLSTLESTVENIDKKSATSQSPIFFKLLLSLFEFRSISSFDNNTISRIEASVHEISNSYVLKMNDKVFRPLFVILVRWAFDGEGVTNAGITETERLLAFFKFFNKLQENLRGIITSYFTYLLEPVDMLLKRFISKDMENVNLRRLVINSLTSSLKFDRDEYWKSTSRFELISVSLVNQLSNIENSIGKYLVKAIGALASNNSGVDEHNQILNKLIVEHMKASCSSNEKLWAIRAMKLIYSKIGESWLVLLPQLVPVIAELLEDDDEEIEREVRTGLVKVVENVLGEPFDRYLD
UniProt P32495: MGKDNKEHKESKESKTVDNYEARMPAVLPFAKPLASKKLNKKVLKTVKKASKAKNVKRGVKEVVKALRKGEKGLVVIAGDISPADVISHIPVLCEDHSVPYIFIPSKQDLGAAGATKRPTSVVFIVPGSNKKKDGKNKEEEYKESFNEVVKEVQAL
UniProt Q05022: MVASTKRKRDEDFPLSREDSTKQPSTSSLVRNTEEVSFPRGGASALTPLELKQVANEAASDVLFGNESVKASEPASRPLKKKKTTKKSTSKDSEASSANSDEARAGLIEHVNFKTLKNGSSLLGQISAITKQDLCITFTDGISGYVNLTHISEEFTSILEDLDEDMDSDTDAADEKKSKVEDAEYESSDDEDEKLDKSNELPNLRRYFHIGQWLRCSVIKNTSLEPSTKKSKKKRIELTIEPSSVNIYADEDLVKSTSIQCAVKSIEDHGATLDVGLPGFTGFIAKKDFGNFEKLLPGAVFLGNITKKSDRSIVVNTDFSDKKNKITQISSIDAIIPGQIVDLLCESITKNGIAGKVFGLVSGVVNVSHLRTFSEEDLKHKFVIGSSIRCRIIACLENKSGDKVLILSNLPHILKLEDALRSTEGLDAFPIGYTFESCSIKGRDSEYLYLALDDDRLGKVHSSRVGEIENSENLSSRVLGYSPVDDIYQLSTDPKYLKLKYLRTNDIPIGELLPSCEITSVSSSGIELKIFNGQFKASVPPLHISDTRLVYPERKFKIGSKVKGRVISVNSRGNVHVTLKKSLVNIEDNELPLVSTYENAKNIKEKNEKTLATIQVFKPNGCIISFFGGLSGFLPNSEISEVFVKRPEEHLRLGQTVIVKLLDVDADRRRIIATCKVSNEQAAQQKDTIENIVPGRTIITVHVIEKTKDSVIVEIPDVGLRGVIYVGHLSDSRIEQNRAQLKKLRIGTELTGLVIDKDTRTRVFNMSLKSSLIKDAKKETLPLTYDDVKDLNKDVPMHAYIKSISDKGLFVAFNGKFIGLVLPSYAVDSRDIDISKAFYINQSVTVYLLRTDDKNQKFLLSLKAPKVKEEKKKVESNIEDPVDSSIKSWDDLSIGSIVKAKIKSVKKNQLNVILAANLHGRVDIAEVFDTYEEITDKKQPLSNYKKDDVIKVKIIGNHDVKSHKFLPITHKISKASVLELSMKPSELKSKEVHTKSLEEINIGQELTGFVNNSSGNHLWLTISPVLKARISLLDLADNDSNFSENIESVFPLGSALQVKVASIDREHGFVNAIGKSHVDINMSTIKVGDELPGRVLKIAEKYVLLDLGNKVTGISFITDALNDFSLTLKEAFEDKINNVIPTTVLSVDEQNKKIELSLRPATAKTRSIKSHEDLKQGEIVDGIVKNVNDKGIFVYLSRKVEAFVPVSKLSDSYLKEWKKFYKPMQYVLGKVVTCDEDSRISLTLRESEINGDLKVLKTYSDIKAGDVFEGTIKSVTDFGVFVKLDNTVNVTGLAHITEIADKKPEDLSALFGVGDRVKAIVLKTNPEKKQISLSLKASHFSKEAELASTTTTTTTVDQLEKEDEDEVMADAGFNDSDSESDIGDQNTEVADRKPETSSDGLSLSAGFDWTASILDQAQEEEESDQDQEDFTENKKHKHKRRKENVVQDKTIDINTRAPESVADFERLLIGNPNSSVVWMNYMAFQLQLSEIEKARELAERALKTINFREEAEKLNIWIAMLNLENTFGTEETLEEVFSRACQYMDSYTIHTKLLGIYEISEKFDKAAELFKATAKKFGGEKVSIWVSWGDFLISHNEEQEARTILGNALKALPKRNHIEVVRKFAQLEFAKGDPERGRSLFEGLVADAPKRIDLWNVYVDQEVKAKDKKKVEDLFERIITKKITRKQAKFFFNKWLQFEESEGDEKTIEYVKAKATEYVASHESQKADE
UniProt P33322: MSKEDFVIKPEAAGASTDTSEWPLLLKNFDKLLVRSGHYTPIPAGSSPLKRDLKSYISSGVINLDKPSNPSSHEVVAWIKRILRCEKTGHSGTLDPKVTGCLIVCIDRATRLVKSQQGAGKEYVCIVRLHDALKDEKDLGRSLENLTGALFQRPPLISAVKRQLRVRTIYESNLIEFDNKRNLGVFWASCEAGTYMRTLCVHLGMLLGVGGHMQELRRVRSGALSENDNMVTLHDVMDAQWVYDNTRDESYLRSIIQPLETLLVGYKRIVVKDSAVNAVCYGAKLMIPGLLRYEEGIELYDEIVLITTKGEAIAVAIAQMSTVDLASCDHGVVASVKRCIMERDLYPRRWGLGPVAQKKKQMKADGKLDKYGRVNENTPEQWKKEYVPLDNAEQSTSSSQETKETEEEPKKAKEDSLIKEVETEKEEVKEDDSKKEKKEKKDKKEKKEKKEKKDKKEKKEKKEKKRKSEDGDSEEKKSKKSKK
UniProt Q6Q547: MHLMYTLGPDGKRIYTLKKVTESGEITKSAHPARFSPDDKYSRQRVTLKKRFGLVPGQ
UniProt P28007: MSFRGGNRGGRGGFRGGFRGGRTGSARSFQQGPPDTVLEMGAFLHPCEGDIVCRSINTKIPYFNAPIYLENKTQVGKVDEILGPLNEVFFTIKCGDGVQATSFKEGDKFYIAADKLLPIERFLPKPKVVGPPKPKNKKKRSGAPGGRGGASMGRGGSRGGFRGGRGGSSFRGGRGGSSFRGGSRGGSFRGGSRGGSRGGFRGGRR

Holding throughout (experiment): affinity purification with mass spectrometry
Assay [1] addresses T1, Noc4-FTpA (S. cerevisiae) (UniProt Q06512).
T1 sequence: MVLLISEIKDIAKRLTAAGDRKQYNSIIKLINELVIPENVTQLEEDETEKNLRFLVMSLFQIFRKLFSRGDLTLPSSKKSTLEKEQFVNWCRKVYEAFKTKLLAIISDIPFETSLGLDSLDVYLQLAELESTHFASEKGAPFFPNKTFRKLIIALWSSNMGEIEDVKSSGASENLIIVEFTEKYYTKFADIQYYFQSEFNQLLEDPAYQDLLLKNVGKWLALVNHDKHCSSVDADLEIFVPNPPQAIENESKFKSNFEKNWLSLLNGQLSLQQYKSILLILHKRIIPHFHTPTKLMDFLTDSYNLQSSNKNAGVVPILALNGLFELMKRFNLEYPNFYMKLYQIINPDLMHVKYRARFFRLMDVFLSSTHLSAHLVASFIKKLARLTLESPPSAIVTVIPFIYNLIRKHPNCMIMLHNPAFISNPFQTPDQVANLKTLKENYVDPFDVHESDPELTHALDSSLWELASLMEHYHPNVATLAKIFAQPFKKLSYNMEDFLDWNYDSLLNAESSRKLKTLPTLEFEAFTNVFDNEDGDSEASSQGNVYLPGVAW

Assay [2] concerns the target Utp10-FTpA (S. cerevisiae) (UniProt P42945).
The target in assay [3] is T2, Kri1-FTpA (S. cerevisiae) (UniProt P42846).
T2 sequence: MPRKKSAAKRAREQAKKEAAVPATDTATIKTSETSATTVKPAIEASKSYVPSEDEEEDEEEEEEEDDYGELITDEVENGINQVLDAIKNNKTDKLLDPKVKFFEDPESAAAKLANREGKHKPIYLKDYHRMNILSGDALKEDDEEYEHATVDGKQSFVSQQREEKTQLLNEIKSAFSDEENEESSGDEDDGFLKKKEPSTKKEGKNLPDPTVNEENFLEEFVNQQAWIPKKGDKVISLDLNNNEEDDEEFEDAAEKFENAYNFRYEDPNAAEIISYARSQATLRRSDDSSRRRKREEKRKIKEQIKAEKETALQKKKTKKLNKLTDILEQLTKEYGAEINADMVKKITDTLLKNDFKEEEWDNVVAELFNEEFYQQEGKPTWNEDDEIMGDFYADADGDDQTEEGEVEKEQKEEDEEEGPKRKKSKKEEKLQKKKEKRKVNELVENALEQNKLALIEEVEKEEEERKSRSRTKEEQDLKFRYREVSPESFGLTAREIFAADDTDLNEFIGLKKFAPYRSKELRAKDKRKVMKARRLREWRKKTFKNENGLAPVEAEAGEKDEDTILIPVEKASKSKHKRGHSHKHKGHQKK

The target of assay [4] is T3, Utp23-FTpA (S. cerevisiae) (UniProt Q12339).
T3 sequence: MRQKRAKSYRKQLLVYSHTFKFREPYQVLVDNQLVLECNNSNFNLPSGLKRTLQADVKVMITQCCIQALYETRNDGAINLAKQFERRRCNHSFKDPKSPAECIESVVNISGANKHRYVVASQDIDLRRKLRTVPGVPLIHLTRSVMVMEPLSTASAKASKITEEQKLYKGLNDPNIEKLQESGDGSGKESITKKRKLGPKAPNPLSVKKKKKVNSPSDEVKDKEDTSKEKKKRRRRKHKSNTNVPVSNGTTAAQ

For the molecule Nhp2 (from UniProt P32495 1-156), the binding entry in assay [1] and in assay [2] was “binds” each time.

For the molecule Rrp5 (from UniProt Q05022 1-1729), the binding result in assay [1], in assay [3] and in assay [2] was “binds” each time.

On to “Cbf5 (from UniProt P33322 1-483) (enzyme)”, for which the binding entry in assay [1] and in assay [2] was “binds” each time.

Consider Nop10 (from UniProt Q6Q547 1-58), for which the binding result in assay [1] and in assay [2] was “binds” each time.

As for Gar1 (from UniProt P28007 1-205), the binding result in assay [1] and in assay [2] was “binds” each time.

B1: Utp23 (untagged, found in Noc4 and Utp10 particles) (protein, UniProt Q12339 1-254)
chain: MRQKRAKSYRKQLLVYSHTFKFREPYQVLVDNQLVLECNNSNFNLPSGLKRTLQADVKVMITQCCIQALYETRNDGAINLAKQFERRRCNHSFKDPKSPAECIESVVNISGANKHRYVVASQDIDLRRKLRTVPGVPLIHLTRSVMVMEPLSTASAKASKITEEQKLYKGLNDPNIEKLQESGDGSGKESITKKRKLGPKAPNPLSVKKKKKVNSPSDEVKDKEDTSKEKKKRRRRKHKSNTNVPVSNGTTAAQ
Regarding B1, the binding entry in assay [1] and in assay [2] was “binds” throughout.

B2: Utp22 (protein, UniProt P53254 1-1237)
chain: MATSVKRKASETSDQNIVKVQKKHSTQDSTTDNGSKENDHSSQAINERTVPEQENDESDTSPESNEVATNTAATRHNGKVTATESYDIHIARETAELFKSNIFKLQIDELLEQVKLKQKHVLKVEKFLHKLYDILQEIPDWEEKSLAEVDSFFKNKIVSVPFVDPKPIPQNTNYKFNYKKPDISLIGSFALKAGIYQPNGSSIDTLLTMPKELFEKKDFLNFRCLHKRSVYLAYLTHHLLILLKKDKLDSFLQLEYSYFDNDPLLPILRISCSKPTGDSLSDYNFYKTRFSINLLIGFPYKVFEPKKLLPNRNCIRIAQESKEQSLPATPLYNFSVLSSSTHENYLKYLYKTKKQTESFVEATVLGRLWLQQRGFSSNMSHSGSLGGFGTFEFTILMAALLNGGGINSNKILLHGFSSYQLFKGVIKYLATMDLCHDGHLQFHSNPENSSSSPASKYIDEGFQTPTLFDKSTKVNILTKMTVSSYQILKEYAGETLRMLNNVVQDQFSNIFLTNISRFDNLKYDLCYDVQLPLGKYNNLETSLAATFGSMERVKFITLENFLAHKITNVARYALGDRIKYIQIEMVGQKSDFPITKRKVYSNTGGNHFNFDFVRVKLIVNPSECDKLVTKGPAHSETMSTEAAVFKNFWGIKSSLRRFKDGSITHCCVWSTSSSEPIISSIVNFALQKHVSKKAQISNETIKKFHNFLPLPNLPSSAKTSVLNLSSFFNLKKSFDDLYKIIFQMKLPLSVKSILPVGSAFRYTSLCQPVPFAYSDPDFFQDVILEFETSPKWPDEITSLEKAKTAFLLKIQEELSANSSTYRSFFSRDESIPYNLEIVTLNILTPEGYGFKFRVLTERDEILYLRAIANARNELKPELEATFLKFTAKYLASVRHTRTLENISHSYQFYSPVVRLFKRWLDTHLLLGHITDELAELIAIKPFVDPAPYFIPGSLENGFLKVLKFISQWNWKDDPLILDLVKPEDDIRDTFETSIGAGSELDSKTMKKLSERLTLAQYKGIQMNFTNLRNSDPNGTHLQFFVASKNDPSGILYSSGIPLPIATRLTALAKVAVNLLQTHGLNQQTINLLFTPGLKDYDFVVDLRTPIGLKSSCGILSATEFKNITNDQAPSNFPENLNDLSEKMDPTYQLVKYLNLKYKNSLILSSRKYIGVNGGEKGDKNVITGLIKPLFKGAHKFRVNLDCNVKPVDDENVILNKEAIFHEIAAFGNDMVINFETD
As for B2, the binding entry in assay [1], in assay [4], in assay [3] and in assay [2] was “binds” in each case.

B3: Kri1 (protein, UniProt P42846 1-591)
chain: MPRKKSAAKRAREQAKKEAAVPATDTATIKTSETSATTVKPAIEASKSYVPSEDEEEDEEEEEEEDDYGELITDEVENGINQVLDAIKNNKTDKLLDPKVKFFEDPESAAAKLANREGKHKPIYLKDYHRMNILSGDALKEDDEEYEHATVDGKQSFVSQQREEKTQLLNEIKSAFSDEENEESSGDEDDGFLKKKEPSTKKEGKNLPDPTVNEENFLEEFVNQQAWIPKKGDKVISLDLNNNEEDDEEFEDAAEKFENAYNFRYEDPNAAEIISYARSQATLRRSDDSSRRRKREEKRKIKEQIKAEKETALQKKKTKKLNKLTDILEQLTKEYGAEINADMVKKITDTLLKNDFKEEEWDNVVAELFNEEFYQQEGKPTWNEDDEIMGDFYADADGDDQTEEGEVEKEQKEEDEEEGPKRKKSKKEEKLQKKKEKRKVNELVENALEQNKLALIEEVEKEEEERKSRSRTKEEQDLKFRYREVSPESFGLTAREIFAADDTDLNEFIGLKKFAPYRSKELRAKDKRKVMKARRLREWRKKTFKNENGLAPVEAEAGEKDEDTILIPVEKASKSKHKRGHSHKHKGHQKK
As for B3, the binding result in assay [1] and in assay [2] was “binds” throughout.

B4: RNA helicase Rok1 (enzyme, UniProt P45818 1-564)
chain: MDIFRVLTRGASVKKESGPKAKAADYSVINGNDENHKEDNNESQIVKELDFFRNKRIISKVEDDREKTTENDSPNKEEKSGNDDGLIKPVITNTVEASALRKSYKGNVSGIDIPLPIGSFEDLISRFSFDKRLLNNLIENGFTEPTPIQCECIPVALNNRDVLACGPTGSGKTLAFLIPLVQQIIDDKQTAGLKGLIISPTKELANQIFIECFKLSYKIFLEKKRPLQVALLSKSLGAKLKNKVVSDKKYDIIISTPLRLIDVVKNEALDLSKVKHLIFDEADKLFDKTFVEQSDDILSACREPSLRKAMFSATIPSNVEEIAQSIMMDPVRVIIGHKEAANTNIEQKLIFCGNEEGKLIAIRQLVQEGEFKPPIIIFLESITRAKALYHELMYDRINVDVIHAERTALQRDRIIERFKTGELWCLICTDVLARGIDFKGVNLVINYDVPGSSQAYVHRIGRTGRGGRSGKAITFYTKQDSVAIKPIINVMKQSGCEVSEWMDKMAKMTRKEKESIKNGKAHKERKQITTVPKMDKAKRRRQQEMIAASKRRKNEELSKKHFSK
In the case of B4, the binding entry in assay [1], in assay [4], in assay [3] and in assay [2] was “binds” each time.

B5: Rrp7 (protein, UniProt P25368 1-297)
chain: MGIEDISAMKNGFIVVPFKLPDHKALPKSQEASLHFMFAKRHQSSNSNESDCLFLVNLPLLSNIEHMKKFVGQLCGKYDTVSHVEELLYNDEFGLHEVDLSALTSDLMSSTDVNEKRYTPRNTALLKFVDAASINNCWNALKKYSNLHAKHPNELFEWTYTTPSFTTFVNFYKPLDIDYLKEDIHTHMAIFEQREAQAQEDVQSSIVDEDGFTLVVGKNTKSLNSIRKKILNKNPLSKHENKAKPISNIDKKAKKDFYRFQVRERKKQEINQLLSKFKEDQERIKVMKAKRKFNPYT
In the case of B5, the binding entry in assay [1], in assay [4], in assay [3] and in assay [2] was “binds” each time.
